Among the data in PMC12397258 are binding values, retold here.

No constants are given. Whether binding was seen depends on the method and setting. In cells and extracts the contact can be indirect. Binding can be weak; no strength is given. Tags and fused reporters may be left off the sequences shown.

Assay [1] addresses T1, GST-TRIM2 (UniProt Q9C040).
T1 sequence: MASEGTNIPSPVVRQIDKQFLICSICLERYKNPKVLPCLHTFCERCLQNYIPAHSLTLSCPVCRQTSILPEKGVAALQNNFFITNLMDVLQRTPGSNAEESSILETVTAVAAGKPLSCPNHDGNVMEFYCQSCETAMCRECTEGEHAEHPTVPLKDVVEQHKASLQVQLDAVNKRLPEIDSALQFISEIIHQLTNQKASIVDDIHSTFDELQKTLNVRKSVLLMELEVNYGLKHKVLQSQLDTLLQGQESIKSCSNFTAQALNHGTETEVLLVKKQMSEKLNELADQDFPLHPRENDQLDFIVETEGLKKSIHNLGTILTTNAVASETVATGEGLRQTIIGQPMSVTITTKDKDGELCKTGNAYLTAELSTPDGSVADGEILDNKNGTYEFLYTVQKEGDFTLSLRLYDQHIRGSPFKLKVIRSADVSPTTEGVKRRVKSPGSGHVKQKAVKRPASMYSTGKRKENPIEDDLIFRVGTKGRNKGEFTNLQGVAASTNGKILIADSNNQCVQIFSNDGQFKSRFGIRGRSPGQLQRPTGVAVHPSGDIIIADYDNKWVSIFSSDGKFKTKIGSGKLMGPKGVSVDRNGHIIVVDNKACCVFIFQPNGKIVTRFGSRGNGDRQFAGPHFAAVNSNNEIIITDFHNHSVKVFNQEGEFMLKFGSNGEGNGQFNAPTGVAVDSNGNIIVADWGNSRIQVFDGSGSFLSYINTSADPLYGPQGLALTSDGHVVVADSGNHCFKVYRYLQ
The experiment in a line: pull-down; purified GST-TRIM2 (or GST) with glutathione Sepharose 4B incubated with lysates of transfected HEK293T cells at 4 C overnight; western blot with anti-Flag antibody; only the target purified. On the technique in general: In western blotting, separated proteins are transferred to a membrane and probed.

Assay [2] has as its target T2, HA-TRIM2 (UniProt Q9C040).
T2 sequence: T1 sequence
Briefly: co-IP; HEK293T cells co-transfected with the indicated plasmids (PEI), 48 h, 10 uM MG132 for 4 h before lysis; lysis buffer 0.5% lubrol-px, 50 mM KCl, 2 mM CaCl2, 20% glycerol, 50 mM Tris-HCl, 3 mM sodium vanadate, 2 mM NaF; 1 ug antibody with Protein A/G agarose at 4 C overnight; western blot.

Turning to Flag-BNIP3, the binding result in assay [1] and in assay [2] was “binds” each time.
